Experimental data as given in publication PMC12518634, “The noncanonical function of liver-type phosphofructokinase potentiates the efficacy of HDAC inhibitors in cancer” (Signal Transduction and Targeted Therapy, 2025).
These are yes or no findings as the source states them, for the method shown. For some of these results: Binding seen in cells or lysates may run through a third protein. Some entries that bind do so weakly or less than the wild type. For some of these results: Sequences can lack the tags named with a protein.

Sequences of proteins named here, by UniProt entry; tags and fusion partners are left off.
UniProt Q13547: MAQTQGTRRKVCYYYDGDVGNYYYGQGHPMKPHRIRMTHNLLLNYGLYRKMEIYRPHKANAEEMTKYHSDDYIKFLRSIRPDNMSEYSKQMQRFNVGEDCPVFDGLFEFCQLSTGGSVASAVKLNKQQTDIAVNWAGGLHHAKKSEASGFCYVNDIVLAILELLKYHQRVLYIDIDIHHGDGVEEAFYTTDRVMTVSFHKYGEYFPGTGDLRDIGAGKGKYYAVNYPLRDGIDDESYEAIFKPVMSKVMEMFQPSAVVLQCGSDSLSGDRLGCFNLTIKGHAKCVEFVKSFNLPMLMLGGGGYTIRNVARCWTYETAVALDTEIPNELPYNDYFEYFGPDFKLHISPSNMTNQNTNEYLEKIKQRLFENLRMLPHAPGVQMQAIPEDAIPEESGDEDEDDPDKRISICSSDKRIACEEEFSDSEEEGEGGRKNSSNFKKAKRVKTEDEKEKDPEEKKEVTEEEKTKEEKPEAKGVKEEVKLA
UniProt O15379: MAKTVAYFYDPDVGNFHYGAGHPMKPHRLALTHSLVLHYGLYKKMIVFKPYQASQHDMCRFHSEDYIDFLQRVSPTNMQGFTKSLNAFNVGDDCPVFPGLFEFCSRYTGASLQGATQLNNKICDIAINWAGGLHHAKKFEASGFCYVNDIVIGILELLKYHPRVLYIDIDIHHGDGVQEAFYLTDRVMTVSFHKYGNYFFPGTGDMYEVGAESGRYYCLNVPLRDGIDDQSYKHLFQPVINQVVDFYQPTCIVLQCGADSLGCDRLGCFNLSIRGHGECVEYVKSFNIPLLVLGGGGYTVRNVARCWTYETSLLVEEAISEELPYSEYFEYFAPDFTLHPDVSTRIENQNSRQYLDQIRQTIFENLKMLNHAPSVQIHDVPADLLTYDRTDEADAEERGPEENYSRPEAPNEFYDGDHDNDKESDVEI
UniProt Q92769: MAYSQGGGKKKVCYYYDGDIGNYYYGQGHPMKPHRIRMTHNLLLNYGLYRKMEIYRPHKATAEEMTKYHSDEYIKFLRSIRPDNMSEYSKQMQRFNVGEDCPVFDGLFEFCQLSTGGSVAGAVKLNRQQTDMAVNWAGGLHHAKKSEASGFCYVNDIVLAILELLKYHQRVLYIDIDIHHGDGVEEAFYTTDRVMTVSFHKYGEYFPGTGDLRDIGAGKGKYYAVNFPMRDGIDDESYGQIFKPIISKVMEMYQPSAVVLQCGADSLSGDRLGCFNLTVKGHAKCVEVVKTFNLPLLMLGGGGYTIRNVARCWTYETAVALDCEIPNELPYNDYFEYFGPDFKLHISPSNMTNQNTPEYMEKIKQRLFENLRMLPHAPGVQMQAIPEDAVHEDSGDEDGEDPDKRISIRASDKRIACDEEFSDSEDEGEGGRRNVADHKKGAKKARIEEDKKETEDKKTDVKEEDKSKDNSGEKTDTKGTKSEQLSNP

T1: PFKL (endogenous or tagged not stated; immunoprecipitates for mass spectrometry, co-IP of the PFK isoforms, purified PFKL added to HDAC1) (human) (UniProt P17858)
T1 sequence: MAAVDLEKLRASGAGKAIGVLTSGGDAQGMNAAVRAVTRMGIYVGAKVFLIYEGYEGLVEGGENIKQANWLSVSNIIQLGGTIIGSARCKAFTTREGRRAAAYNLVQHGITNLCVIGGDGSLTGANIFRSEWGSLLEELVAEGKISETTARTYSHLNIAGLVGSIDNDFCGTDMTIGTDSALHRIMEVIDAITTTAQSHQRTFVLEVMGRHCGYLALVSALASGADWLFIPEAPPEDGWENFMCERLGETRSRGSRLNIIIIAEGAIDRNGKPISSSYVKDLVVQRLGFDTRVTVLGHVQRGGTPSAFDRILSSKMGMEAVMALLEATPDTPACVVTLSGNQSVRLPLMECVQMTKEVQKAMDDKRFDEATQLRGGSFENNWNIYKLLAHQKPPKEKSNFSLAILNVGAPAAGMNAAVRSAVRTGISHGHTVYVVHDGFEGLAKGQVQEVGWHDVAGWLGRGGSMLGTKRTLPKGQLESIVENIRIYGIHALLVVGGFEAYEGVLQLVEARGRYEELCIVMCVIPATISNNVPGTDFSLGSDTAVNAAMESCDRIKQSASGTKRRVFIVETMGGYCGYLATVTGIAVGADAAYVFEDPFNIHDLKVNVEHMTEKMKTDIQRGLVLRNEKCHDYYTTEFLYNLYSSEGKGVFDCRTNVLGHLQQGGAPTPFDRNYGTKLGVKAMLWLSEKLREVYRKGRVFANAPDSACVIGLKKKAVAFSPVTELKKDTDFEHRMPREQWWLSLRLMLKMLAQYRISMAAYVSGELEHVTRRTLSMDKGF

T2: His-HDAC8, recombinant (UniProt Q9BY41)
T2 sequence: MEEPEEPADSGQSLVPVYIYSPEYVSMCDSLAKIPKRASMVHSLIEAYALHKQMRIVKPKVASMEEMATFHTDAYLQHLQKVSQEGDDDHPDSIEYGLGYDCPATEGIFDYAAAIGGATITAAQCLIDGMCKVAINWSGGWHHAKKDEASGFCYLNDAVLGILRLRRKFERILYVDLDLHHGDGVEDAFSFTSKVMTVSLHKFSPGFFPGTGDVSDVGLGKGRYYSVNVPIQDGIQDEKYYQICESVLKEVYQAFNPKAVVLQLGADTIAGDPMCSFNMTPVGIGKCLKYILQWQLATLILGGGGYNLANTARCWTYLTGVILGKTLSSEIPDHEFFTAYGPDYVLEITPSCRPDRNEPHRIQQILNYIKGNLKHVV


Columns and labels:
[1] = target: HDAC1 (endogenous or tagged not stated; immunoprecipitates for mass spectrometry and co-IP with the PFK isoforms) (human) (UniProt Q13547); test: co-IP; co-IP of PFKL, PFKM or PFKP with HDAC1
[2] = target: T1, PFKL (endogenous or tagged not stated; immunoprecipitates for mass spectrometry, co-IP of the PFK isoforms, purified PFKL added to HDAC1) (human); test: co-IP; co-IP of the three PFK isoforms with each other in TFK cells
[3] = target: His-HDAC3, recombinant (UniProt O15379); test: SPR; OpenSPR (Nicoya), 25 °C; His-HDAC proteins immobilised on an NTA sensor chip (~16000 RU), GST-PFKL injected as analyte; PBS-P buffer (10 mM phosphate, 137 mM NaCl, 2.7 mM KCl, 0.05% surfactant P20); 20 μL/min, 240 s contact, 360 s dissociation; 1:1 binding model; both purified
[4] = target: His-HDAC2, recombinant (UniProt Q92769); test: as above
[5] = target: T2, His-HDAC8, recombinant; test: as above

binding [1]	binding [2]	binding [3]	binding [4]	binding [5]	Binder
no binding	no binding				PFKP (platelet-type phosphofructokinase) (enzyme, UniProt Q01813 1-784) MDADDSRAPKGSLRKFLEHLSGAGKAIGVLTSGGDAQGMNAAVRAVVRMGIYVGAKVYFIYEGYQGMVDGGSNIAEADWESVSSILQVGGTIIGSARCQAFRTREGRLKAACNLLQRGITNLCVIGGDGSLTGANLFRKEWSGLLEELARNGQIDKEAVQKYAYLNVVGMVGSIDNDFCGTDMTIGTDSALHRIIEVVDAIMTTAQSHQRTFVLEVMGRHCGYLALVSALACGADWVFLPESPPEEGWEEQMCVKLSENRARKKRLNIIIVAEGAIDTQNKPITSEKIKELVVTQLGYDTRVTILGHVQRGGTPSAFDRILASRMGVEAVIALLEATPDTPACVVSLNGNHAVRLPLMECVQMTQDVQKAMDERRFQDAVRLRGRSFAGNLNTYKRLAIKLPDDQIPKTNCNVAVINVGAPAAGMNAAVRSAVRVGIADGHRMLAIYDGFDGFAKGQIKEIGWTDVGGWTGQGGSILGTKRVLPGKYLEEIATQMRTHSINALLIIGGFEAYLGLLELSAAREKHEEFCVPMVMVPATVSNNVPGSDFSIGADTALNTITDTCDRIKQSASGTKRRVFIIETMGGYCGYLANMGGLAAGADAAYIFEEPFDIRDLQSNVEHLTEKMKTTIQRGLVLRNESCSENYTTDFIYQLYSEEGKGVFDCRKNVLGHMQQGGAPSPFDRNFGTKISARAMEWITAKLKEARGRGKKFTTDDSICVLGISKRNVIFQPVAELKKQTDFEHRIPKEQWWLKLRPLMKILAKYKASYDVSDSGQLEHVQPWSV
no binding	binds weakly				PFKM (muscle-type phosphofructokinase) (enzyme, UniProt P08237 1-780) MTHEEHHAAKTLGIGKAIAVLTSGGDAQGMNAAVRAVVRVGIFTGARVFFVHEGYQGLVDGGDHIKEATWESVSMMLQLGGTVIGSARCKDFREREGRLRAAYNLVKRGITNLCVIGGDGSLTGADTFRSEWSDLLSDLQKAGKITDEEATKSSYLNIVGLVGSIDNDFCGTDMTIGTDSALHRIMEIVDAITTTAQSHQRTFVLEVMGRHCGYLALVTSLSCGADWVFIPECPPDDDWEEHLCRRLSETRTRGSRLNIIIVAEGAIDKNGKPITSEDIKNLVVKRLGYDTRVTVLGHVQRGGTPSAFDRILGSRMGVEAVMALLEGTPDTPACVVSLSGNQAVRLPLMECVQVTKDVTKAMDEKKFDEALKLRGRSFMNNWEVYKLLAHVRPPVSKSGSHTVAVMNVGAPAAGMNAAVRSTVRIGLIQGNRVLVVHDGFEGLAKGQIEEAGWSYVGGWTGQGGSKLGTKRTLPKKSFEQISANITKFNIQGLVIIGGFEAYTGGLELMEGRKQFDELCIPFVVIPATVSNNVPGSDFSVGADTALNTICTTCDRIKQSAAGTKRRVFIIETMGGYCGYLATMAGLAAGADAAYIFEEPFTIRDLQANVEHLVQKMKTTVKRGLVLRNEKCNENYTTDFIFNLYSEEGKGIFDSRKNVLGHMQQGGSPTPFDRNFATKMGAKAMNWMSGKIKESYRNGRIFANTPDSGCVLGMRKRALVFQPVAELKDQTDFEHRIPKEQWWLKLRPILKILAKYEIDLDTSDHAHLEHITRKRSGEAAV
		binds	binds	binds	GST-PFKL, recombinant (enzyme, UniProt P17858 1-780) MAAVDLEKLRASGAGKAIGVLTSGGDAQGMNAAVRAVTRMGIYVGAKVFLIYEGYEGLVEGGENIKQANWLSVSNIIQLGGTIIGSARCKAFTTREGRRAAAYNLVQHGITNLCVIGGDGSLTGANIFRSEWGSLLEELVAEGKISETTARTYSHLNIAGLVGSIDNDFCGTDMTIGTDSALHRIMEVIDAITTTAQSHQRTFVLEVMGRHCGYLALVSALASGADWLFIPEAPPEDGWENFMCERLGETRSRGSRLNIIIIAEGAIDRNGKPISSSYVKDLVVQRLGFDTRVTVLGHVQRGGTPSAFDRILSSKMGMEAVMALLEATPDTPACVVTLSGNQSVRLPLMECVQMTKEVQKAMDDKRFDEATQLRGGSFENNWNIYKLLAHQKPPKEKSNFSLAILNVGAPAAGMNAAVRSAVRTGISHGHTVYVVHDGFEGLAKGQVQEVGWHDVAGWLGRGGSMLGTKRTLPKGQLESIVENIRIYGIHALLVVGGFEAYEGVLQLVEARGRYEELCIVMCVIPATISNNVPGTDFSLGSDTAVNAAMESCDRIKQSASGTKRRVFIVETMGGYCGYLATVTGIAVGADAAYVFEDPFNIHDLKVNVEHMTEKMKTDIQRGLVLRNEKCHDYYTTEFLYNLYSSEGKGVFDCRTNVLGHLQQGGAPTPFDRNYGTKLGVKAMLWLSEKLREVYRKGRVFANAPDSACVIGLKKKAVAFSPVTELKKDTDFEHRMPREQWWLSLRLMLKMLAQYRISMAAYVSGELEHVTRRTLSMDKGF
